These are yes or no findings as the source states them, for the method shown. Some results given as binding are weak or reduced against the parent protein; the word gives no strength.
Target: cynomolgus monkey CD38 (cynomolgus monkey) (UniProt Q5VAN0)
Assay: ELISA, antigen coated on plate

Amino acid sequences for entries named in this document (tags omitted). Residues count along the entry.
UniProt Q5VAN0, residues 44-301: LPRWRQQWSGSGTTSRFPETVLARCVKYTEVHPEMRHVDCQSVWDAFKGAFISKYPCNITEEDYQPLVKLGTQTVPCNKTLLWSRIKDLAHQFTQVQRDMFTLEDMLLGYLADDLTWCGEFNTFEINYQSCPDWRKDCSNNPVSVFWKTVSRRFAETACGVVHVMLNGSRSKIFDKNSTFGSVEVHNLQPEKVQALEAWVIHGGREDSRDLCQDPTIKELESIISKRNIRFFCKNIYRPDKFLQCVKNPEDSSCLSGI

binding: binds
Substance: CD38hhy1195/CD28sup x CD3mid_ENLQ DKTHT IgG4 FALA (from UniProt P0DOX7 1-214)

Reference: patent US20200399369A1
